Measurements as given in patent US20250109127A1, “METHODS OF USE OF PHENOXYPROPYLAMINE COMPOUNDS TO TREAT DEPRESSION” (Minerva Neurosciences, Inc., priority 2013, published 2025).
“And” between values parts separate entries of the source, which are not always exact repeats. Equal entries are not always repeated. Structures can show the parent of a compound that is named as a salt. Further values from the same series stand in other lists.

How the values were obtained:
[1] = tested on: 5-HIAA release in the rat prefrontal cortex; test: Microdialysis: 5-HIAA release in prefrontal cortex after I.P. administration; assay type: in vivo; details: hydrochloride; for 5-HIAA (% of respective basal), individual animal: 0.1 mg/kg I.P., c2-c9 = R#13,14,20,19,25,26,31,32; for 5-HIAA release, individual animals: 0.3 mg/kg I.P., one column per animal R#11,12,18,23,29,30,17,24; for 5-HIAA release (% of basal levels) measured in dialysates: SON-117 3 mg/kg IP, individual animals, 3 mg/kg
Method: (§1) The aim of the study was to evaluate, using microdialysis, the effects of an intraperitoneal (I.P.) administration in rats of three different doses of SON-117 on dopamine and its metabolites, serotonin and its metabolite (5-HIAA), and norepinephrine levels in prefrontal cortex.
(§2) Thirty-two adult male Wistar rats were used for the whole study (4 groups of eight animals planned for the study, Table 1).
(§3) Surgery was performed on rats weighing about 300 g at the beginning of the experiments. Rats were anaesthetized with Ketamine (50 mg/kg) & Xylazine (15 mg/kg) by intramuscular administration. The animals were placed in a stereotaxic apparatus in the flat-skull position at a constant setting of −3.3 mm between ear bars and the incisor bar. The animals were treated with a local anesthesic (xylocaine 1%, Astra Zeneca) and an analgesic (Temgesic, from Schering Plough, 0.05 mg/kg, s.c.). A rostrocaudal midline incision was made with a lancet to expose the dorsal skull surface. The “stereotaxic zero” was defined by the Bregma in accordance with Paxinos and Watson's atlas (1986). A hole was drilled in the skull with a drill and the meninges were pierced with a sterile needle to implant a CMA12 guide cannula which later received the dialysis probe.
(§4) Coordinates used for implanting guide cannula in prefrontal cortex from Bregma were anteroposterior 3.7 mm, mediolateral 0.8 mm, and dorsoventral −2 mm (top of the probe was at −5 mm). The guide cannula was fixed to the skull with two stainless steel screws (1.88 mm outside diameter) anchored. An application of dental cement was added. A plastic collar allowed each animal to be tethered to a Swivel assembly of the CMA 120 awake animal system. Following surgery, rats were kept in individual cages and allowed to recover for a minimum of 3-5 days before the experimentation. The rats were handled and put in plastic bowl for 10 min at least every day to habituate the animals to their new environment for the dialysis. An I.P. administration with saline was also performed every day.
(§5) Dialysis probes (CMA12/3 mm, membrane, 20 kD cut-off, Carnegie Medicine, Stockholm, Sweden), were carefully washed before inserting into the guide cannula. The wash was performed with the artificial cerebrospinal fluid (aCSF) medium (NaCl 147 mM, KCl 2.7 mM, CaCl2 1.2 mM, MgCl2 0.85 mM) at room temperature. The dialysis system was then equilibrated at 20° C. at a perfusion rate of 1 μl/min with a Carnegie pump (CMA100). All catheters (FEP tubing, internal volume of 1.2 μl/10 cm, and tubing adaptors) used for microdialysis were treated in the same conditions.
(§6) The probes duly prepared were inserted into the guide cannula and the CMA120 Swivel assembly secured to the animal using a plastic collar. Flow through the dialysis probe with aCSF was maintained at a rate of 1 μl/min during the whole experimentation. The first four fractions (corresponding to 2 hours) were discarded to avoid the effects of parenchymal disturbance and to ensure that an approximate steady-state level was reached. Fractions were then collected over a period of 8.5 h during which time the animals remained quiet. The dialysates were automatically collected with an autosampler (microfraction collector CMA 140, Carnegie Medicin) and stored at −80° C. until analysis. […] Perfusion was then maintained for 7 hours with aCSF. The dialysates (30 μl) were collected into 300 μl vials, transferred into dry ice and then kept frozen (−80° C.) until analysis. Frozen samples were shipped to a partner for analysis. At the end of the microdialysis study, a PBS with colored ink was perfused through the probe in order to visualize the dialyzed area.
(§7) Catecholamine assay: Concentrations of dopamine, DOPAC, HVA, 5-HIAA, 5-HT, and norepinephrin were determined for each sample by HPLC coupled with electrochemical detection.

[2] = tested on: HVA release in the rat prefrontal cortex; test: Microdialysis: HVA release in prefrontal cortex after I.P. administration; assay type: in vivo; details: hydrochloride; for HVA (% of respective basal), individual animal: 0.1 mg/kg I.P., c2-c9 = R#13,14,20,19,25,26,31,32; for HVA release, individual animals: 0.3 mg/kg I.P., one column per animal R#11,12,18,23,29,30,17,24
Method: as §1, §2, §3, §4, §5, §6, §7

[3] = T-1 h 30-T-1 h (before administration)
[4] = T-1 h-T-30 min (before administration)
[5] = T-30 min-T0 (before administration)

Cc1nnc(-c2cc3c(OC[C@@H](O)CN4CCC(c5ccc(Cl)c(Cl)c5)CC4)cccc3o2)o1 [SON-117, (S)-1-(4-(3,4-dichlorophenyl)piperidino)-3-(2-(5-methyl-1,3,4-oxadiazol-2-yl)benzo(b)furan-4-yloxy)-2-propanol hydrochloride]
5-HIAA (% of respective basal), individual animal [1, 3]: 103.54 % of respective basal and 96.38 % of respective basal and 103.27 % of respective basal and 96.06 % of respective basal and 90.91 % of respective basal and 81.32 % of respective basal and 112.18 % of respective basal and 104.59 % of respective basal | 5-HIAA (% of respective basal), individual animal [1, 4]: 89.16 % of respective basal and 97.758 % of respective basal and 96.93 % of respective basal and 96.24 % of respective basal and 111.59 % of respective basal and 110.40 % of respective basal and 97.74 % of respective basal and 100.27 % of respective basal | 5-HIAA release, individual animals ([1]; T0-T30 min): 102.94 % of respective basal and 90.89 % of respective basal and 108.76 % of respective basal and 101.63 % of respective basal and 86.48 % of respective basal and 107.66 % of respective basal and 116.13 % of respective basal and 113.00 % of respective basal | 5-HIAA release, individual animals ([1]; T6 h 30-T7 h): 94.07 % of respective basal and 93.86 % of respective basal | 5-HIAA release, individual animals [1, 5]: 100.18 % of respective basal and 101.96 % of respective basal and 105.97 % of respective basal and 101.81 % of respective basal and 100.77 % of respective basal and 93.72 % of respective basal and 98.06 % of respective basal and 108.22 % of respective basal | 5-HIAA release, individual animals [1, 3]: 94.29 % of respective basal and 100.12 % of respective basal and 90.67 % of respective basal and 98.49 % of respective basal and 94.27 % of respective basal and 96.96 % of respective basal and 100.87 % of respective basal and 93.90 % of respective basal | 5-HIAA release, individual animals [1, 4]: 105.52 % of respective basal and 97.92 % of respective basal and 103.36 % of respective basal and 99.69 % of respective basal and 104.96 % of respective basal and 109.32 % of respective basal and 101.10 % of respective basal and 97.88 % of respective basal | 5-HIAA release (% of basal levels) measured in dialysates ([1]; T0-T30 min): 101.21 % of basal levels and 93.16 % of basal levels and 90.36 % of basal levels and 111.88 % of basal levels and 92.81 % of basal levels and 106.00 % of basal levels and 100.80 % of basal levels and 103.83 % of basal levels | 5-HIAA release (% of basal levels) measured in dialysates ([1]; T6 h 30-T7 h): 68.84 % of basal levels and 70.77 % of basal levels and 90.47 % of basal levels | 5-HIAA release (% of basal levels) measured in dialysates ([1]; T-30 min-T0 (pre-administration)): 105.11 % of basal levels and 94.02 % of basal levels and 109.01 % of basal levels and 102.99 % of basal levels and 104.67 % of basal levels and 104.95 % of basal levels and 100.33 % of basal levels and 102.08 % of basal levels | 5-HIAA release (% of basal levels) measured in dialysates ([1]; T-1 h 30-T-1 h (pre-administration)): 93.32 % of basal levels and 102.17 % of basal levels and 94.03 % of basal levels and 87.44 % of basal levels and 89.69 % of basal levels and 98.75 % of basal levels and 100.94 % of basal levels and 91.52 % of basal levels | 5-HIAA release (% of basal levels) measured in dialysates ([1]; T-1 h-T-30 min (pre-administration)): 101.57 % of basal levels and 103.81 % of basal levels and 96.95 % of basal levels and 109.57 % of basal levels and 105.64 % of basal levels and 96.30 % of basal levels and 98.73 % of basal levels and 106.40 % of basal levels | HVA (% of respective basal), individual animal ([2]; T0-T30 min): 121.40 % of respective basal and 123.36 % of respective basal and 91.60 % of respective basal and 94.33 % of respective basal and 84.55 % of respective basal and 93.95 % of respective basal | HVA (% of respective basal), individual animal ([2]; T6 h 30-T7 h): 88.04 % of respective basal and 148.73 % of respective basal and 123.65 % of respective basal and 63.53 % of respective basal | HVA (% of respective basal), individual animal [2, 5]: 96.50 % of respective basal and 104.97 % of respective basal and 102.90 % of respective basal and 134.09 % of respective basal and 91.26 % of respective basal and 104.17 % of respective basal and 88.35 % of respective basal and 90.91 % of respective basal | HVA (% of respective basal), individual animal [2, 3]: 107.21 % of respective basal and 96.85 % of respective basal and 93.64 % of respective basal and 80.61 % of respective basal and 99.87 % of respective basal and 85.05 % of respective basal and 108.5 % of respective basal and 111.3 % of respective basal | HVA (% of respective basal), individual animal [2, 4]: 96.32 % of respective basal and 98.16 % of respective basal and 103.43 % of respective basal and 85.28 % of respective basal and 108.88 % of respective basal and 110.79 % of respective basal and 103.16 % of respective basal and 97.79 % of respective basal | HVA release, individual animals ([2]; T0-T30 min): 90.89 % of respective basal and 66.19 % of respective basal and 85.70 % of respective basal and 97.19 % of respective basal and 87.89 % of respective basal and 113.36 % of respective basal and 220.95 % of respective basal and 94.31 % of respective basal | HVA release, individual animals ([2]; T6 h 30-T7 h): 79.61 % of respective basal and 100.92 % of respective basal | HVA release, individual animals [2, 5]: 95.34 % of respective basal and 96.06 % of respective basal and 96.23 % of respective basal and 99.79 % of respective basal and 99.29 % of respective basal and 91.13 % of respective basal and 128.40 % of respective basal and 104.31 % of respective basal
